No constants are given. Whether binding was seen depends on the method and setting. In cells and extracts the contact can be indirect. These calls come from enrichment with a bait or labelling near it, and not all partners need be listed.

Protein sequences, listed by entry. Tags and fused reporters are not part of them. Residues count along the entry.
UniProt P78527, residues 3719-4015: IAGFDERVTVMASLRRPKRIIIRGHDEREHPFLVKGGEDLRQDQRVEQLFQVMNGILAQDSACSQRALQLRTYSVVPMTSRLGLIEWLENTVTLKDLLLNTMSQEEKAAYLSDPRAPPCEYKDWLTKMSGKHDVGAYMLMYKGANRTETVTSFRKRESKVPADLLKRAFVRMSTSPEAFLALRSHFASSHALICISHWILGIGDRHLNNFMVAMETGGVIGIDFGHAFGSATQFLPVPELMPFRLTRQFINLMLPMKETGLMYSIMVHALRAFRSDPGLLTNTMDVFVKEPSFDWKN
UniProt Q8IWV7: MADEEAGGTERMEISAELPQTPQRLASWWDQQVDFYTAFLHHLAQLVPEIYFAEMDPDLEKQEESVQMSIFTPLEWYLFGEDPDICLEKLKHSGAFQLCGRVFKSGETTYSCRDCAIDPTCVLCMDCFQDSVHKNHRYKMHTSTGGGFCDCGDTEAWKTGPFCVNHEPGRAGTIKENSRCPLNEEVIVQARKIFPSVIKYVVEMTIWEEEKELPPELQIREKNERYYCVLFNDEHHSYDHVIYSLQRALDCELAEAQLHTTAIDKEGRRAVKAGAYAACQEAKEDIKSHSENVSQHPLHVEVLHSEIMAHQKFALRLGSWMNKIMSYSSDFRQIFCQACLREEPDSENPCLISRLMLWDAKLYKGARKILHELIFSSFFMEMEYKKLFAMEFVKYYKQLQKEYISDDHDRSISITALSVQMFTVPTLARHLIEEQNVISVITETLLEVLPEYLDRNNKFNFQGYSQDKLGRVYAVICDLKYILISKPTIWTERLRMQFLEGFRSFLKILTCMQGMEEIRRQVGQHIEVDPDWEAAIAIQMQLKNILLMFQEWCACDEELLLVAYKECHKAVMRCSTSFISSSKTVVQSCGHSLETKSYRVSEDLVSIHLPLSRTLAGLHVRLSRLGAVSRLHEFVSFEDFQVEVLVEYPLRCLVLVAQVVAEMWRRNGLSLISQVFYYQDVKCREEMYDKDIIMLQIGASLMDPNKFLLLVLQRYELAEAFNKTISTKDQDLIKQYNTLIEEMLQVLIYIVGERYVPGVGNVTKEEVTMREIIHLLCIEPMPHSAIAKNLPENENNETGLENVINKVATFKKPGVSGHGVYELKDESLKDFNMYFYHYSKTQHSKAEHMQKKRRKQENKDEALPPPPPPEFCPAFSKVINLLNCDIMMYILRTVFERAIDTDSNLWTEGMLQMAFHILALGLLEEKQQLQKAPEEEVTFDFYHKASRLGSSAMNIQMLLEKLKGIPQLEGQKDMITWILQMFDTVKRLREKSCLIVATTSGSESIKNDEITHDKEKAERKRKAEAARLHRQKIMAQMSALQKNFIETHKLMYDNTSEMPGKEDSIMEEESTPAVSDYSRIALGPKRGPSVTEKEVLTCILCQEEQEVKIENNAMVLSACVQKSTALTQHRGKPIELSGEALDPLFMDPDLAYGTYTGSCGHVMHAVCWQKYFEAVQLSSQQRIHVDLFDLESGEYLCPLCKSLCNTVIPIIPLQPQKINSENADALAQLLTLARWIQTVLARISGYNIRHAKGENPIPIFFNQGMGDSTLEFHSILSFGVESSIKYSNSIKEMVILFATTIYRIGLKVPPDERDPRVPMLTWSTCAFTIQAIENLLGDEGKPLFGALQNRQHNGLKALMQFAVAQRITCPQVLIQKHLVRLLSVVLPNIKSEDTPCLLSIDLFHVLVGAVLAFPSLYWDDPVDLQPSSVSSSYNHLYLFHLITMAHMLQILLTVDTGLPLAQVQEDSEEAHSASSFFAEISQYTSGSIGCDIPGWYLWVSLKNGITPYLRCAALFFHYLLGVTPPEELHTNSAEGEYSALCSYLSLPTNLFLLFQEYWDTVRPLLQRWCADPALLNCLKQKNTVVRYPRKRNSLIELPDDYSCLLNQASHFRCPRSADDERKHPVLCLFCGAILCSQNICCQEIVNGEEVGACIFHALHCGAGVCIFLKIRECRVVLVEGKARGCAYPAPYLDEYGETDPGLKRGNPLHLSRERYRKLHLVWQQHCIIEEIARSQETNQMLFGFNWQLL
UniProt P19474: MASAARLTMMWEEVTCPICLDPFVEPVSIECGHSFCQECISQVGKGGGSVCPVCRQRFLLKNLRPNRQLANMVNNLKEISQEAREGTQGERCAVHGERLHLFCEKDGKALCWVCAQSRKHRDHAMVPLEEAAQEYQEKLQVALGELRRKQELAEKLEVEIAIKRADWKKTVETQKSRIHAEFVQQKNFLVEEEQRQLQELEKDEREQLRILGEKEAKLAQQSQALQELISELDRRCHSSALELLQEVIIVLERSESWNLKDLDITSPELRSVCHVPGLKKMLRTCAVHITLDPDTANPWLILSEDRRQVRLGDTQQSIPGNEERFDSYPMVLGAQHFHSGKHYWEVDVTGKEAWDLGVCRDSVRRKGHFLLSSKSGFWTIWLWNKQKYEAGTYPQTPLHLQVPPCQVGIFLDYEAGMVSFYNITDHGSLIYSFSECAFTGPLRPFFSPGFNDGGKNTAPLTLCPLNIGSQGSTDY

The source of these data is article PMC7250858.

For this assay, the target named is Flag-DNA-PKcs kinase domain (3719aa to 4015aa) fragment (UniProt P78527). The experiment in a line: affinity purification with mass spectrometry; mass spectrometry of the immunoprecipitation product of the Flag-DNA-PKcs kinase domain (3719-4015) fragment.

Consider “UBR1 (from UniProt Q8IWV7 1-1749) (enzyme)”, for which the binding result is recorded as “binds”.

Consider “TRIM21 (from UniProt P19474 1-475) (enzyme)”, for which the binding result was “binds”. For the substance “HUWE1 (HECT, UBA, and WWE domain containing E3 ubiquitin protein ligase 1), endogenous (from UniProt Q7Z6Z7 1-4374) (enzyme)”, the binding entry is “binds”.
